This is one part of the list.
How the values were obtained:
Experiment in all cases: log2 fold change, soluble protein after heating vs DMSO (PISA); higher = thermal stabilisation; K562 lysate, 10 uM; active = over 0.2 and 3.5 SD of the protein, either way, in both replicates (recomputed)
nilotinib = compound: Cc1cn(-c2cc(NC(=O)c3ccc(C)c(Nc4nccc(-c5cccnc5)n4)c3)cc(C(F)(F)F)c2)cn1 [nilotinib]
Outline: (§1)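 To prepare the extract, K562 pellets were dounce-homogenised in PBS pH 7.4 with 1 mM MgCl2, giving crude material at 1 mg/mL protein. This was treated with 10 μM compound for 30 min, then heated in aliquots for 3 min over 48°C-58°C before pooling and addition of NP-40 to 0.5% at 4°C. Centrifugation at 21,000xg for 90 min left soluble protein in the supernatant, which TMTpro 16plex LC-MS/MS quantified with equalised channel sums. Results are log-two fold changes in thermal stability compared with solvent controls, from duplicates.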

Chains of the proteins cited; added tags and fusions are not shown. Lines headed by an entry give the natural chain unless they say otherwise; changes in a name come on top.
UniProt Q9NP72: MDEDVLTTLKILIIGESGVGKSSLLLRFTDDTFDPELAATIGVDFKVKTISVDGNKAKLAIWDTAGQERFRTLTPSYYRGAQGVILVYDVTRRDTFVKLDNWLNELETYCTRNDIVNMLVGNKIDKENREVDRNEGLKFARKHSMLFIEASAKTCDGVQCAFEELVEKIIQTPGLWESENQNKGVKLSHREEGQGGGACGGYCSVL
UniProt Q9H0R6: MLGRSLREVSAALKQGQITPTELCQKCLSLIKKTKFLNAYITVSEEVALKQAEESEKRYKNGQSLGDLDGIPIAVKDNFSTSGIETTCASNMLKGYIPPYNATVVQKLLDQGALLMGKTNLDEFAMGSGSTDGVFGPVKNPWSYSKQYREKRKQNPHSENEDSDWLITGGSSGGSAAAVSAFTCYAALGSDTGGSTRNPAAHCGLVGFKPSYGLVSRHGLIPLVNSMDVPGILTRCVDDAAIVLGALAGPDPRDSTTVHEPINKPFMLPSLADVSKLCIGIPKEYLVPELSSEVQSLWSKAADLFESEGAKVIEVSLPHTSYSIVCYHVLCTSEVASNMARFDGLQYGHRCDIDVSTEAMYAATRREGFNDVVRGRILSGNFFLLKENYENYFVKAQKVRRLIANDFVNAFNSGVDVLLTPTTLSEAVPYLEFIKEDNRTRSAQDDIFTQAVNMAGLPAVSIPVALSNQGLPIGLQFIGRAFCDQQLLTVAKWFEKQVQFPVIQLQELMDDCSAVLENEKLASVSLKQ
UniProt Q15042: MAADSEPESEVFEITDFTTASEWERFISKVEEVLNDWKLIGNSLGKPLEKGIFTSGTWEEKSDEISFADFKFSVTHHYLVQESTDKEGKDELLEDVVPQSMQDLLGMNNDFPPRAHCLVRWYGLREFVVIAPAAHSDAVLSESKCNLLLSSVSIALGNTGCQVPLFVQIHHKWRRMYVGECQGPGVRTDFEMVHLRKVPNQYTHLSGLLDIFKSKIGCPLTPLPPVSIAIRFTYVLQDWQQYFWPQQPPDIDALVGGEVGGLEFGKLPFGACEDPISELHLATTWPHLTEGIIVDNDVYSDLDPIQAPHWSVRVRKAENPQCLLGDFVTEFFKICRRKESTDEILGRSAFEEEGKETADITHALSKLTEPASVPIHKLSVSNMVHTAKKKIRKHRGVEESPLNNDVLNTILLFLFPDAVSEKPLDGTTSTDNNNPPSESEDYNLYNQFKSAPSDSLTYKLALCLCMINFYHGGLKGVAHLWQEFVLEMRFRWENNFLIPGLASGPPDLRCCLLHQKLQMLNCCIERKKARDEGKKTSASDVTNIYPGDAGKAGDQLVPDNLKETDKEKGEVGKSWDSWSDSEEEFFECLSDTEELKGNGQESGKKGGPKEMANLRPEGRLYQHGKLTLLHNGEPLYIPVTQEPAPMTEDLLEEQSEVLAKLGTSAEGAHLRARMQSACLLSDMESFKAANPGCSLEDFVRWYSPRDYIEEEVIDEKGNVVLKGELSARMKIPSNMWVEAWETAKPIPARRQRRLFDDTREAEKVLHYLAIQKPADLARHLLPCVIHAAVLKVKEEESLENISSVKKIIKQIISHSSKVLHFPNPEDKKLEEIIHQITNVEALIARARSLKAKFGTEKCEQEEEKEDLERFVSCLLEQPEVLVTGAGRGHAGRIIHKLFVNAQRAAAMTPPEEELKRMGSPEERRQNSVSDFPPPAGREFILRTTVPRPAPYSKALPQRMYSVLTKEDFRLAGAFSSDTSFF
UniProt Q9ULZ3, whole entry, looked up: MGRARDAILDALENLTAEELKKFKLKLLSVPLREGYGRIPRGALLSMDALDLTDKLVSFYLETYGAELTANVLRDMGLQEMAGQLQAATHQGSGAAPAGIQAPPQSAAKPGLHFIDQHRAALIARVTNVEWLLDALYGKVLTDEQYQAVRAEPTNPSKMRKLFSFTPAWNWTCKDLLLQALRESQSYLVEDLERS
UniProt Q96QF0: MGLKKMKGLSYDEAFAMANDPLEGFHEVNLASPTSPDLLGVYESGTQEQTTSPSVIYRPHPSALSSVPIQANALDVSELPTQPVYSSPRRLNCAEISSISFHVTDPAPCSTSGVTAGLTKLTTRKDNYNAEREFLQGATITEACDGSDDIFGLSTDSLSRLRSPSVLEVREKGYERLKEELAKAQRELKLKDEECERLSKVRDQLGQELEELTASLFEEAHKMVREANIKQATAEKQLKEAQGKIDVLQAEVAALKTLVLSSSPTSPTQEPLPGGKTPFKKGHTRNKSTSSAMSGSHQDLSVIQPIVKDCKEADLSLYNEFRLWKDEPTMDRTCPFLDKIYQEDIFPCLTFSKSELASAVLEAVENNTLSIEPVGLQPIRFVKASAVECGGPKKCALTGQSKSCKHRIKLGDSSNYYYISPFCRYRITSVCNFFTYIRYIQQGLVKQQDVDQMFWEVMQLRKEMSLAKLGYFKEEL
UniProt Q15907: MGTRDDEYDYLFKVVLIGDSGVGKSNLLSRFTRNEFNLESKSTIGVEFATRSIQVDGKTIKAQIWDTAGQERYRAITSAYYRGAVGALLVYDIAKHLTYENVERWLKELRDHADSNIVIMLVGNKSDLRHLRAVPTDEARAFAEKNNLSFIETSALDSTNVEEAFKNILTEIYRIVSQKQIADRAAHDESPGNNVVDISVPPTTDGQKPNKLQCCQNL
UniProt Q13636: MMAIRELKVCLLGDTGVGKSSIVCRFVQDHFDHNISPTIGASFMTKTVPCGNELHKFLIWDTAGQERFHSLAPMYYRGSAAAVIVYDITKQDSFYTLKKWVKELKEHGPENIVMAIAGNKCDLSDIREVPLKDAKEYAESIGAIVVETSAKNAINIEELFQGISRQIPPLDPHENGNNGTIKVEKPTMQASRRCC
UniProt Q9ULC3: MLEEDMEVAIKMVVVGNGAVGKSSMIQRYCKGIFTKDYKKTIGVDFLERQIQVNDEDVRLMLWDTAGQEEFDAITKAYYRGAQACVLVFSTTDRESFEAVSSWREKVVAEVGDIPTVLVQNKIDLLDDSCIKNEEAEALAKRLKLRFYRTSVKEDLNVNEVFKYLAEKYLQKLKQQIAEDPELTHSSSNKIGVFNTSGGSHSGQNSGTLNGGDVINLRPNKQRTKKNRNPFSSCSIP
UniProt Q92878: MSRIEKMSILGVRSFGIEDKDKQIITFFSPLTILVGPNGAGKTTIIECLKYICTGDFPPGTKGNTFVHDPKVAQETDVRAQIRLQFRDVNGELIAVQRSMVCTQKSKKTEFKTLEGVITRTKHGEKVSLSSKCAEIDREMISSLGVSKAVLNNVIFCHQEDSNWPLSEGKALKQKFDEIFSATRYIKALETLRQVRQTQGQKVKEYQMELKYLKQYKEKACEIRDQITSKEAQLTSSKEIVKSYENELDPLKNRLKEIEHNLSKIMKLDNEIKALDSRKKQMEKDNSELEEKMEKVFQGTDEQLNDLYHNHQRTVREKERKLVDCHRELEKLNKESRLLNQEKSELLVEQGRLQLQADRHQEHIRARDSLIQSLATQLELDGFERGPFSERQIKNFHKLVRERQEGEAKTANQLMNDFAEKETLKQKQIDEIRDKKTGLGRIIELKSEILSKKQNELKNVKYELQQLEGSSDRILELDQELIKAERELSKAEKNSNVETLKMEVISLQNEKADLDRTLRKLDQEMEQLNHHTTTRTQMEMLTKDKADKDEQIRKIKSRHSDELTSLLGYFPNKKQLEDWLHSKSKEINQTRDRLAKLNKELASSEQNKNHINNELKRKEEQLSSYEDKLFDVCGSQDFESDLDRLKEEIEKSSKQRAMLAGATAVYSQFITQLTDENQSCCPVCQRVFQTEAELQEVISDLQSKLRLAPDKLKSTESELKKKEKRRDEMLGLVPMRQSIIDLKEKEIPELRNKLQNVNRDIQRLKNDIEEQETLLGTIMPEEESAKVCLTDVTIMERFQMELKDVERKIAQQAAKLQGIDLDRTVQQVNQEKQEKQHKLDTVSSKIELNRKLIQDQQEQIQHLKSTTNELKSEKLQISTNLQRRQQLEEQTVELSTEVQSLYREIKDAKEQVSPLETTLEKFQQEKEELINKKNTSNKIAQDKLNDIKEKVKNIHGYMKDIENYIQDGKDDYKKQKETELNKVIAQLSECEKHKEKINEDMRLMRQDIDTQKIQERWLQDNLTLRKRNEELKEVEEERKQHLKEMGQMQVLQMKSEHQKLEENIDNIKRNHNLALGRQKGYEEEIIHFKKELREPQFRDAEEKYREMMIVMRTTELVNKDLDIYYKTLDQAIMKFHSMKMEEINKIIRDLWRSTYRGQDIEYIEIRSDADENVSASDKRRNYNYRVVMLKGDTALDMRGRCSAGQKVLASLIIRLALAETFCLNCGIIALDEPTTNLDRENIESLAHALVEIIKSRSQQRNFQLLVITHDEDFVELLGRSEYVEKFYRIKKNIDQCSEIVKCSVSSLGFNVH
UniProt Q86X10: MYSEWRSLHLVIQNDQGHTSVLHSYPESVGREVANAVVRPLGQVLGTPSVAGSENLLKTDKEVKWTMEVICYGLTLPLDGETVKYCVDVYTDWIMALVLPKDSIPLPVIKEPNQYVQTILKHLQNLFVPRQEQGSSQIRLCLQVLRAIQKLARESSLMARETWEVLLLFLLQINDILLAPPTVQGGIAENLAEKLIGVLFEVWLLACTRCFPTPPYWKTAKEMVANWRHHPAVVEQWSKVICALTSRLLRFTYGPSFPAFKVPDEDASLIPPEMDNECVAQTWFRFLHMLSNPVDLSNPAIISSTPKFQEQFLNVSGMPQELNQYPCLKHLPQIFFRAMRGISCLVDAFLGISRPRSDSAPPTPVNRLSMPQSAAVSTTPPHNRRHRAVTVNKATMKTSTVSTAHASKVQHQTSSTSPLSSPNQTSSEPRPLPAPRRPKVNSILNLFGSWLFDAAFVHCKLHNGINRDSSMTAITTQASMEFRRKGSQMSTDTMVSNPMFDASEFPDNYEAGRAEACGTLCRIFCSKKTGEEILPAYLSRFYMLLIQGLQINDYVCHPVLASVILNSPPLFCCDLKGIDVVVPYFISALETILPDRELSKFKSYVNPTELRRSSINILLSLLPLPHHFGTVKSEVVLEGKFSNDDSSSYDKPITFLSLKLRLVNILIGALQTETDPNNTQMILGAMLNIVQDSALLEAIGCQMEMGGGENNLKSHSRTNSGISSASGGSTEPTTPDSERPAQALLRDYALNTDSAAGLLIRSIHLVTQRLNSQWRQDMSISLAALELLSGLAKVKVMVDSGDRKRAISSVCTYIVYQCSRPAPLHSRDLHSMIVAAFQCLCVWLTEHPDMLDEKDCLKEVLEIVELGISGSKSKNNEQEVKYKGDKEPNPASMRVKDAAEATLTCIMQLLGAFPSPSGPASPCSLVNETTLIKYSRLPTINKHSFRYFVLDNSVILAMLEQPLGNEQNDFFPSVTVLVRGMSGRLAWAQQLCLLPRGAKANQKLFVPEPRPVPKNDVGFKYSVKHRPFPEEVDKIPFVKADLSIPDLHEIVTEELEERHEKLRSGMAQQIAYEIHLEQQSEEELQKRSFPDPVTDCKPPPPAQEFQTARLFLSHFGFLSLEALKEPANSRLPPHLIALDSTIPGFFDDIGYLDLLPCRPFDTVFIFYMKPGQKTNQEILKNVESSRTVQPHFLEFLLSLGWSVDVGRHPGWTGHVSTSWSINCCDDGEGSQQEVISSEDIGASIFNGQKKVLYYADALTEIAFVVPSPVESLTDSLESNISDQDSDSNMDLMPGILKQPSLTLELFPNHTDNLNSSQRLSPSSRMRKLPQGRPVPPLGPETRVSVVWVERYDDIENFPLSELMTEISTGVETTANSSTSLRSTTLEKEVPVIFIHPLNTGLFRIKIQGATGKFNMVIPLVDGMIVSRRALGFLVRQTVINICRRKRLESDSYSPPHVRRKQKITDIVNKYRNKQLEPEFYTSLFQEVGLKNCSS
UniProt P54727: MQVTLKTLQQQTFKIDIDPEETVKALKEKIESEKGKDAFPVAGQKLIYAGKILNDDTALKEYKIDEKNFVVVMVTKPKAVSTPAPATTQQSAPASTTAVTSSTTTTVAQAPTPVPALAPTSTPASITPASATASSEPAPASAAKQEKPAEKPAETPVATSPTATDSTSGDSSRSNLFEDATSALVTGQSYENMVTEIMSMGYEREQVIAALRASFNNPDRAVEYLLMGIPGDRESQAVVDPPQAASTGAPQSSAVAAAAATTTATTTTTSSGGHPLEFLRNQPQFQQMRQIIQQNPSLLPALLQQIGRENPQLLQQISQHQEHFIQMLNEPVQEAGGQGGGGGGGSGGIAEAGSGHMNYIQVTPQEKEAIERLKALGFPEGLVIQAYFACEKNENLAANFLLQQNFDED
UniProt P43487, whole entry, looked up: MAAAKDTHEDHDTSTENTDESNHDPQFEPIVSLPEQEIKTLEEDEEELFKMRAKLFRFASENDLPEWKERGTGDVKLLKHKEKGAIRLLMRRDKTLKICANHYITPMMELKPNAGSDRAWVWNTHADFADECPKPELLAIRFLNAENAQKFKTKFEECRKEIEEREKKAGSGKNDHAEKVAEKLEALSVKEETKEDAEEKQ

[1] = compound: Cc1nc(Nc2n[nH]c3c2CN(C(=O)N[C@H](CN(C)C)c2ccccc2)C3(C)C)c2sccc2n1
Outline: as §1

dasatinib = compound: Cc1nc(Nc2ncc(C(=O)Nc3c(C)cccc3Cl)s2)cc(N2CCN(CCO)CC2)n1 [dasatinib]
Outline: as §1

[2] = compound: Cc1ncc(-c2ccnc(Nc3ccc(S(C)(=O)=O)cc3)n2)n1C(C)C
Outline: as §1

[3] = compound: Cn1cc(-c2ccc3c(c2)CCN3C(=O)Cc2cccc(C(F)(F)F)c2)c2c(N)ncnc21
Outline: as §1

quisinostat = compound: Cn1cc(CNCC2CCN(c3ncc(C(=O)NO)cn3)CC2)c2ccccc21 [quisinostat]
Outline: as §1

tipifarnib = compound: Cn1cncc1[C@@](N)(c1ccc(Cl)cc1)c1ccc2c(c1)c(-c1cccc(Cl)c1)cc(=O)n2C [tipifarnib]
Outline: as §1

[4] = compound: NC(=O)Nc1cc(-c2cccc(F)c2)sc1C(=O)N[C@H]1CCCNC1
Outline: as §1

[5] = compound: NC(=O)c1cnc(N[C@@H]2CCCC[C@@H]2N)nc1Nc1cccc(-n2nccn2)c1
Outline: as §1

[6] = compound: NC1(c2ccc(-c3nc4ccn5c(=O)[nH]nc5c4cc3-c3ccccc3)cc2)CCC1
Outline: as §1

Row | Target | log2 fold change (nilotinib) | log2 fold change [1] | log2 fold change (dasatinib) | log2 fold change [2] | log2 fold change [3] | log2 fold change (quisinostat) | log2 fold change (tipifarnib) | log2 fold change [4] | log2 fold change [5] | log2 fold change [6]
1 | RAB18 isoform 2 (UniProt Q9NP72) | inactive: -0.028 | inactive: 0.057 | inactive: 0.011 | inactive: -0.038 | inactive: -0.009 | inactive: 0.04 | inactive: -0.016 | inactive: 0.014 | inactive: -0.055 | inactive: -0.004
2 | QARS (UniProt P47897) | inactive: -0.012 | inactive: -0.024 | inactive: -0.068 | inactive: -0.03 | inactive: 0.049 | inactive: 0.008 | inactive: -0.023 | inactive: 0.043 | inactive: -0.002 | inactive: 0
3 | RAB3IL1 (UniProt E9PK89) | inactive: -0.039 | inactive: -0.124 | inactive: 0.08 | inactive: 0.003 | inactive: -0.084 | inactive: 0.027 | inactive: 0.061 | inactive: -0.086 | inactive: -0.012 | inactive: 0.157
4 | QRSL1 (UniProt Q9H0R6) | inactive: -0.022 | inactive: 0.031 | inactive: -0.018 | inactive: 0.069 | inactive: 0.07 | inactive: -0.054 | inactive: -0.002 | inactive: 0.034 | inactive: -0.02 | inactive: -0.031
5 | PYCR1 (UniProt J3QKT4) | inactive: -0.052 | inactive: -0.101 | inactive: -0.176 | inactive: 0.037 | inactive: -0.067 | inactive: 0.005 | inactive: -0.044 | inactive: 0.045 | inactive: 0.07 | inactive: -0.089
6 | PXMP2 (UniProt Q9NR77) | inactive: 0.023 | inactive: -0.018 | inactive: -0.007 | inactive: -0.003 | inactive: -0.017 | inactive: 0.012 | inactive: -0.033 | inactive: -0.041 | inactive: 0.003 | inactive: -0.023
7 | RAB3GAP1 (UniProt Q15042) | inactive: 0.01 | inactive: 0.006 | inactive: -0.058 | inactive: 0.006 | inactive: 0.026 | inactive: -0.022 | inactive: -0.041 | inactive: 0.009 | inactive: -0.002 | inactive: -0.017
8 | PYCARD (UniProt Q9ULZ3) | inactive: 0.004 | inactive: 0.029 | inactive: 0.045 | inactive: 0.023 | inactive: 0.015 | inactive: 0.019 | inactive: 0 | inactive: -0.034 | inactive: 0.007 | inactive: 0.022
9 | RAB24 (UniProt Q969Q5) | inactive: -0.012 | inactive: -0.024 | inactive: 0.032 | inactive: 0.007 | inactive: -0.016 | inactive: -0.013 | inactive: 0.008 | inactive: -0.019 | inactive: -0.036 | inactive: 0.008
10 | RAB3IP (UniProt Q96QF0) | inactive: -0.048 | inactive: -0.027 | inactive: -0.053 | inactive: 0.021 | inactive: -0.004 | inactive: 0.03 | inactive: -0.022 | inactive: -0.011 | inactive: -0.014 | inactive: 0.096
11 | RAB11B (UniProt Q15907) | inactive: 0.027 | inactive: -0.009 | inactive: -0.011 | inactive: -0.005 | inactive: 0.021 | inactive: -0.017 | inactive: -0.014 | inactive: -0.041 | inactive: 0.005 | inactive: -0.012
12 | PXMP4 (UniProt Q9Y6I8) | inactive: -0.011 | inactive: 0.014 | inactive: 0.078 | inactive: 0.013 | inactive: -0.092 | inactive: -0.146 | active: 0.846 | inactive: 0.018 | inactive: -0.018 | inactive: -0.215
13 | QSOX2 (UniProt Q6ZRP7) | inactive: 0.025 | inactive: -0.049 | inactive: -0.001 | inactive: -0.019 | inactive: -0.001 | inactive: 0.044 | inactive: -0.015 | inactive: -0.016 | inactive: -0.041 | inactive: 0.008
14 | RAD21 (UniProt O60216) | inactive: -0.005 | inactive: -0.008 | inactive: 0 | inactive: -0.01 | inactive: 0.048 | inactive: 0.008 | inactive: 0.013 | inactive: -0.012 | inactive: 0.007 | inactive: 0.039
15 | RAN (UniProt P62826) | inactive: 0.012 | inactive: -0.018 | inactive: 0.021 | inactive: -0.007 | inactive: -0.019 | inactive: 0.021 | inactive: 0.047 | inactive: -0.039 | inactive: 0.005 | inactive: 0.019
16 | RAB31 (UniProt Q13636) | inactive: 0 | inactive: 0.023 | inactive: 0.033 | inactive: 0.001 | inactive: 0.04 | inactive: 0.021 | inactive: -0.073 | inactive: -0.052 | inactive: 0.015 | inactive: -0.022
17 | RAB23 (UniProt Q9ULC3) | inactive: -0.018 | inactive: 0.011 | inactive: -0.066 | inactive: -0.019 | inactive: 0.016 | inactive: -0.004 | inactive: 0.029 | inactive: -0.015 | inactive: 0.011 | inactive: -0.047
18 | RAD50 isoform 2 (UniProt Q92878) | inactive: -0.004 | inactive: 0.016 | inactive: -0.042 | inactive: -0.003 | inactive: 0.026 | inactive: -0.031 | inactive: -0.02 | inactive: 0.016 | inactive: 0.005 | inactive: 0.001
19 | RALGAPB (UniProt Q86X10) | inactive: -0.022 | inactive: 0.029 | inactive: -0.026 | inactive: 0.026 | inactive: 0.015 | inactive: -0.048 | inactive: -0.021 | inactive: 0.053 | inactive: -0.019 | inactive: -0.044
20 | RAD23B (UniProt P54727) | inactive: -0.009 | inactive: -0.001 | inactive: 0.02 | inactive: -0.004 | inactive: 0 | inactive: -0.023 | inactive: -0.013 | inactive: -0.001 | inactive: 0.012 | inactive: 0.018
21 | RAB2B (UniProt Q8WUD1) | inactive: 0.051 | inactive: -0.024 | inactive: 0.001 | inactive: -0.001 | inactive: -0.036 | inactive: 0.048 | inactive: -0.017 | inactive: -0.03 | inactive: -0.024 | inactive: -0.035
22 | RAE1 (UniProt P78406) | inactive: -0.093 | inactive: 0.042 | inactive: 0.002 | inactive: 0.012 | inactive: 0.033 | inactive: 0.038 | inactive: -0.053 | inactive: 0.026 | inactive: 0.024 | inactive: 0.015
23 | RAB1B (UniProt Q9H0U4) | inactive: 0.016 | inactive: 0.003 | inactive: -0.058 | inactive: -0.029 | inactive: -0.001 | inactive: 0.016 | inactive: -0.04 | inactive: -0.052 | inactive: -0.041 | inactive: 0.002
24 | RAB5C isoform 2 (UniProt P51148) | inactive: 0.027 | inactive: 0.015 | inactive: -0.05 | inactive: 0.004 | inactive: 0 | inactive: 0.002 | inactive: -0.009 | inactive: 0.008 | inactive: -0.009 | inactive: -0.018
25 | RANBP1 (UniProt P43487) | inactive: 0.01 | inactive: -0.026 | inactive: -0.008 | inactive: -0.003 | inactive: 0.004 | inactive: 0.039 | inactive: 0.018 | inactive: -0.061 | inactive: -0.012 | inactive: 0.056
26 | RAB6B (UniProt Q9NRW1) | inactive: 0.023 | inactive: 0.028 | inactive: -0.022 | inactive: -0.024 | inactive: -0.005 | inactive: -0.024 | inactive: -0.018 | inactive: 0.035 | inactive: -0.035 | inactive: 0.026
27 | RANBP3 (UniProt Q9H6Z4) | inactive: 0.022 | inactive: -0.011 | inactive: 0.022 | inactive: 0.006 | inactive: -0.016 | inactive: -0.014 | inactive: -0.011 | inactive: -0.02 | inactive: -0.05 | inactive: -0.016
28 | RALB isoform 2 (UniProt P11234) | inactive: 0.031 | inactive: -0.006 | inactive: -0.008 | inactive: -0.009 | inactive: -0.01 | inactive: 0.035 | inactive: 0.005 | inactive: -0.032 | inactive: 0.016 | inactive: 0.028
29 | PYCR3 (UniProt Q53H96) | inactive: 0.025 | inactive: 0.032 | inactive: -0.009 | inactive: 0.079 | inactive: -0.015 | inactive: -0.014 | inactive: -0.004 | inactive: -0.041 | inactive: -0.009 | inactive: 0.028
30 | QPCTL (UniProt Q9NXS2) | inactive: 0.021 | inactive: 0.02 | inactive: -0.06 | inactive: 0.017 | inactive: 0.033 | inactive: 0.046 | inactive: -0.005 | inactive: -0.041 | inactive: -0.007 | inactive: 0.02

2 records picked at random from the list so far:
Row | Target | log2 fold change (nilotinib) | log2 fold change [1] | log2 fold change (dasatinib) | log2 fold change [2] | log2 fold change [3] | log2 fold change (quisinostat) | log2 fold change (tipifarnib) | log2 fold change [4] | log2 fold change [5] | log2 fold change [6]
30 | QPCTL (UniProt Q9NXS2) | inactive: 0.021 | inactive: 0.02 | inactive: -0.06 | inactive: 0.017 | inactive: 0.033 | inactive: 0.046 | inactive: -0.005 | inactive: -0.041 | inactive: -0.007 | inactive: 0.02
21 | RAB2B (UniProt Q8WUD1) | inactive: 0.051 | inactive: -0.024 | inactive: 0.001 | inactive: -0.001 | inactive: -0.036 | inactive: 0.048 | inactive: -0.017 | inactive: -0.03 | inactive: -0.024 | inactive: -0.035

Source: the supplement of paper PMC10849652
